Results from patent US20230295316A1.
Results are given in words; binding and its absence hold for the method and conditions named. Some entries that bind do so weakly or less than the wild type.

By UniProt entry, the sequences of proteins in these tests, tags left out. Residues count along the entry.
UniProt P26951, residues 19-378: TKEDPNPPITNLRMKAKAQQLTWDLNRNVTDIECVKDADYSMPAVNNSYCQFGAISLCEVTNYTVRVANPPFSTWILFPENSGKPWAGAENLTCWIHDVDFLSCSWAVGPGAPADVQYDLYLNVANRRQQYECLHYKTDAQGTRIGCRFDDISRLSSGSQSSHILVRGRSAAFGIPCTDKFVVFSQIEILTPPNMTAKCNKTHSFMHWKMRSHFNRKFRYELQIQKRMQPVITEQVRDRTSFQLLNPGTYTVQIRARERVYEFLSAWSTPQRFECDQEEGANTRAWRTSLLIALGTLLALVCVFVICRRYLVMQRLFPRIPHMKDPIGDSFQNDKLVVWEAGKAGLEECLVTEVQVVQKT

Key:
[1] = biological target: human interleukin-3 (IL-3) receptor alpha-chain (CD123), on cells (human) (UniProt P26951); assay: method not given
[2] = biological target: human interleukin-3 (IL-3) receptor alpha-chain (CD123), on cells (human) (UniProt P26951); assay: flow cytometry, MOLM-13 vs MOLM-13 CD123KO, labeled secondary
[3] = biological target: human interleukin-3 (IL-3) receptor alpha-chain (CD123), on cells (human) (UniProt P26951); assay: flow cytometry (PE-A), 2 µg/mL by the legend (hybridoma supernatants by paragraph 203) + labeled secondary antibody, parental MOLM-13 cells against MOLM-13 CD123KO

Measured: binding

B1: 123-ATX1G5 (Human anti-CD123 antibody from ATX-GX mouse, Kappa Light Chain) (antibody, V domains shown)
VH: QVQLVQSGSEVKKPGSSVKVSCKASGGTFSSYAISWVRQAPGQGLEWMGGIIPIFGTVTYAQKFQGRVTITADESTNTVYMELSSLRSEDTAVYYCARDDFWTGDYWGQGTLVTVSS
VL: DIQMTQSPSSLSASVGDRVTITCRASQGISNYLAWFQQKPGKAPKSLIYAASSLQSGVPSKFSGSGSGTDFTLTISSLQPEDLATYYCQQYNSYPYTFGQGTKLEIK
binds: all assays above
